Assay results taken from patent US20220267310A1, “QUINAZOLINE AND CINNOLINE DERIVATIVES AS DNA-PK INHIBITOR” (MEDSHINE DISCOVERY INC., priority 2019, published 2022).
For at least one compound, name, drawing or mass did not settle the structure.

Experiment: Pharmacokinetic evaluation in mice, IV and PO
Type: in vivo, Balb/c female mice
Conditions: IV(2 mg/kg), mouse plasma
Method: The tested compound was mixed with 10% DMSO/50% PEG400/40% water, vortexized and ultrasonic to prepare 0.2 mg/mL or 0.4 mg/ml, approximately clarified solution, which was filtered by a microporous membrane and then standby. Balb/c female mice of 18-20 g were selected and given the candidate compound solution intravenously at a dose of 1 or 2 mg/kg. The tested compound was mixed with 10% DMSO/50% PEG400/40% water, vortexized and ultrasonic to prepare 0.2 mg/mL or 1 mg/mL approximately clarified solution, which was filtered by a microporous membrane and then standby. Balb/c female mice of 18 to 20 g were selected and given orally the candidate compound solution at a dose of 2 or 10 mg/kg. Whole blood was collected for a certain period of time, and plasma was prepared. Drug concentration was analyzed by LC-MS/MS method, and pharmacokinetic parameters were calculated by Phoenix WinNonlin software (US Pharsight company).
C0: instantaneous concentration required after intravenous injection; Cmax: the highest blood concentration after administration; Tmax: time required to reach peak concentration after administration; T1/2: the time required for blood drug concentration to decrease by half; Vdss: apparent volume of distribution, which refers to the ratio constant of drug dosage to blood concentration when a drug reaches dynamic equilibrium in vivo. Cl: clearance rate, referring to drug apparent distribution volume number removed from the body per unit time; Tlast: time of last detection point: AUC0-last: an area under a drug duration curve, referring to an area surrounded by the blood drug concentration curve on the time axis; Bioavailability: a measure of the rate and extent of drug absorption into the blood circulation, which was an important index to evaluate drug absorption degree.

COc1ccc(C(O)c2cc(-c3cnnc4c(F)c(N5CCOCC5)cc(F)c34)c(F)cc2Cl)nn1 (single isomer, unassigned) [Embodiment 19]
Cl: 16.3 mL/min/kg
T1/2: 1.72 h
Vdss: 100 L/kg
